Article PMC4323032

T1: Peroxiredoxin V (mouse (endogenous in kidney)) (UniProt P99029)
T1 sequence: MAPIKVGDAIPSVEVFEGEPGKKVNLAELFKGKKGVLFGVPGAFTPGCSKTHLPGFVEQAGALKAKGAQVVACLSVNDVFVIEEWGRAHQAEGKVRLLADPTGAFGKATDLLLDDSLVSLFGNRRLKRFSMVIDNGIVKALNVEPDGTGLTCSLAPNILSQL


Target: T1, Peroxiredoxin V (mouse (endogenous in kidney))
Assay: affinity purification with mass spectrometry; 500 μg total protein of normoxic or hypoxic (8% O2, 4 h) mouse kidney, anti-Prdx V antibody at 4°C overnight, protein G agarose; gel-assisted digestion, nano-UPLC-MS^E; three independent experiments

| binding | Binder |
| --- | --- |
| binds | Propionyl CoA carboxylase beta chain, mitochondrial (protein, UniProt Q99MN9 29-541) GLCSQPVSVKERIDNKRHAALLGGGQRRIDAQHKRGKLTARERISLLLDPGSFMESDMFVEHRCADFGMAADKNKFPGDSVVTGRGRINGRLVYVFSQDFTVFGGSLSGAHAQKICKIMDQAITVGAPVIGLNDSGGARIQEGVESLAGYADIFLRNVTASGVIPQISLIMGPCAGGAVYSPALTDFTFMVKDTSYLFITGPEVVKSVTNEDVTQEQLGGAKTHTTVSGVAHRAFDNDVDALCNLREFFNFLPLSSQDPAPIRECHDPSDRLVPELDTVVPLESSKAYNMLDIIHAVIDEREFFEIMPSYAKNIVVGFARMNGRTVGIVGNQPNVASGCLDINSSVKGARFVRFCDAFNIPLITFVDVPGFLPGTAQEYGGIIRHGAKLLYAFAEATVPKITVITRKAYGGAYDVMSSKHLLGDTNYAWPTAEIAVMGAKGAVEIIFKGHQDVEAAQAEYVEKFANPFPAAVRGFVDDIIQPSSTRARICCDLEVLASKKVHRPWRKHANIPL |
| binds | Propionyl CoA carboxylase alpha chain, mitochondrial (protein, UniProt Q91ZA3 49-724) SVEYEPKEKTFDKILIANRGEIACRVIKTCKKMGIKTVAIHSDVDASSVHVKMADEAVCVGPAPTSKSYLNMDAIMEAIKKTRAQAVHPGYGFLSENKEFAKRLAAEDVTFIGPDTHAIQAMGDKIESKLLAKRAKVNTIPGFDGVVKDADEAVRIAREIGYPVMIKASAGGGGKGMRIAWDDEETRDGFRFSSQEAASSFGDDRLLIEKFIDNPRHIEIQVLGDKHGNALWLNERECSIQRRNQKVVEEAPSIFLDPETRQAMGEQAVALAKAVKYSSAGTVEFLVDSQKNFYFLEMNTRLQVEHPVTECITGLDLVQEMILVAKGYPLRHKQEDIPISGWAVECRVYAEDPYKSFGLPSIGRLSQYQEPIHLPGVRVDSGIQPGSDISIYYDPMISKLVTYGSDRAEALKRMEDALDNYVIRGVTHNIPLLREVIINTRFVKGDISTKFLSDVYPDGFKGHTLTLSERNQLLAIASSVFVASQLRAQRFQEHSRVPVIRPDVAKWELSVKLHDEDHTVVASNNGPAFTVEVDGSKLNVTSTWNLASPLLSVNVDGTQRTVQCLSREAGGNMSIQFLGTVYKVHILTKLAAELNKFMLEKVPKDTSSTLCSPMPGVVVAVSVKPGDMVAEGQEICVIEAMKMQNSMTAGKMGKVKLVHCKAGDTVGEGDLLVELE |
| binds | Ras related protein Rab 43 isoform b (protein, UniProt Q8CG50 1-210) MAGPGPGDQDEHYDFLFKLVLVGDASVGKTCVVQRFKTGAFSARQGSTIGVDFTMKTLEIQGKRVKLQIWDTAGQERFRTITQSYYRSANGAILAYDISKRSTFLSVPHWIEDVRKYAGSNIVQLLIGNKSDLADFREVPLAEAQSLAEHYDILCAIETSAKDSSNVEEAFTRVATELIMRHGGPMFSEKNTDHIQLDSKDIAESWGCGC |
| binds | Keratin type I cuticular Ha2 (protein, UniProt Q62168 1-407) MPSVCMPTTYRPASCLSKTYLSSSCQPSNRRPTGCISSSMGTYGLFCEGAFNGNEKETMQVLNDRLANYLEKVRQLEKENAELEGKIQDVYQGQVLTMCPDYQSYFQTIEELQQKVLCTKAENARMIVHIDNAKLAADDFRTKYETELALRQLVEADTNGLRRILDELTLNKADLEAQVESLKEELLCLKRNHEEEVGVLRQQLGDRLNIEVDAAPPVDLTRMLEEMRCQYETMVETNHRDVEEWFNMQMEELNKQVATSSEQLQSYQSDIIDLRRTVNTLEIELQAQHSLRDSLENTLGETEGRFTSQLSQMQCMITNVESQLSDIRCDLERQNQEYKVLLDVKARLECEIDTYRGLLESEDSKLPCNPCSTPSCQPCAPSPGVSRTVCVPHTVCVPCSPCLQTRY |
| binds | Non-lysosomal glucosylceramidase (protein, UniProt Q69ZF3 1-918) MVTCVPASEQVGCAERDSQVYCEDTGGTEAVRVTDCGSPEDSGPQDEPSYCNSEDSGQLMASYEGKARGYQVPPFGWRICLAHEFAEKRRPFQANNISLSNLVKHLGMGLRYLKWWYRKTHVEKKTPFIDMLNSLPLRQIYGCPLGGIGGGTITRGWRGQFCRWQLNPGMYQHQTVIADQFIVCLRRDGRTVYQQVLSLELPNVLRSWNWGLCGYFAFYHALYPRAWTVYQLPGQNVTLTCRQVTPILPHDYQDSSLPVGVFVWDVENEGDETLDVSITFSMRNGLGGEDDAAGSLWNEPFRLEQGGTTVQGLLLHHPTPPNPYTMAVAARCTADTTVTHTTAFDPNGTGQQVWQDLLQDGQLDSPAGQSTPTQKGEGIAGAVCVSSKLLPRSRCCLEFSLAWDMPKIMFGAKSQVHYRRYTRFFGSDGDVAPALSHYALCHYADWEDRISAWQNPVLDDRTLPAWYKSALFNELYFLADGGTVWLEVPADSLPEGLGGSMRQLRSTLQDYGRFGYLEGQEYRMYNTYDVHFYASFALVMLWPKLELSLQYDMALATLKEDLTRRRYLMSGVVAPVKRRNVIPHDIGDPDDEPWLRVNAYLIHDTADWKDLNLKFVLQIYRDYYLTGDQGFLEDMWPVCLAVMESEMKFDKDQDGLIENGGYADQTYDAWVTTGPSAYCGGLWLAAVAVMVQMAVLCGAQDVQERFASILCRGREAYERLLWNGRYYNYDSSSHPQSRSIMSDQCAGQWFLRACGLGEGDTEVFPTLHVVRALQTIFELNVQAFAGGAMGAVNGMHPHGVPDRSSVQSDEVWVGVVYGLAATMIQEGLTWEGFRTAEGCYRTVWERLGLAFQTPEAYCQQQVFRSLAYMRPLSIWAMQLALQQQQHKKSRRPSVTQGTGLSTQPECGPKRSLANLNSE |
| binds | Thioredoxin (protein, UniProt P10639 1-105) MVKLIESKEAFQEALAAAGDKLVVVDFSATWCGPCKMIKPFFHSLCDKYSNVVFLEVDVDDCQDVAADCEVKCMPTFQFYKKGQKVGEFSGANKEKLEASITEYA |

No constants are given. Whether binding was seen depends on the method and setting. Binding seen in cells or lysates may run through a third protein. A yes stands for co-enrichment or nearness to the bait. Other partners may have been found. Where a sequence is shown, tags or fusion partners need not be part of it.
